In US10426159B1, “Highly efficient enhancers for antifreeze protein activity” (The Trustees of California State University, priority 2012, dated 2019):
The name of at least one read-out is uncertain.

System: Dendroides canadensis antifreeze proteins DAFPs: DAFP-1, -2, -4, and -6
Assay: Enhancement of TH activity of DAFPs
Assay type: biochemical
Settings: concentration not given

With Nc1ncnc2c1ncn2[C@@H]1O[C@H](COP(=O)(O)OP(=O)(O)OP(=O)(O)O)[C@@H](O)[C@H]1O [ATP] the “increase in TH activity” value was “at least 5 fold”.
